Experimental data published in the supplement of paper PMC11732987, “Enantioselective OTUD7B fragment discovery through chemoproteomics screening and high-throughput optimisation” (Communications Chemistry, 2025).
This is one part of the list. The data scatter; read single values as rough.

Sequences of proteins named here, by UniProt entry; tags and fusion partners are left off. A change or cut given only in a name is not applied to a line headed by its entry. Residues count along the entry.
UniProt Q8IYQ7: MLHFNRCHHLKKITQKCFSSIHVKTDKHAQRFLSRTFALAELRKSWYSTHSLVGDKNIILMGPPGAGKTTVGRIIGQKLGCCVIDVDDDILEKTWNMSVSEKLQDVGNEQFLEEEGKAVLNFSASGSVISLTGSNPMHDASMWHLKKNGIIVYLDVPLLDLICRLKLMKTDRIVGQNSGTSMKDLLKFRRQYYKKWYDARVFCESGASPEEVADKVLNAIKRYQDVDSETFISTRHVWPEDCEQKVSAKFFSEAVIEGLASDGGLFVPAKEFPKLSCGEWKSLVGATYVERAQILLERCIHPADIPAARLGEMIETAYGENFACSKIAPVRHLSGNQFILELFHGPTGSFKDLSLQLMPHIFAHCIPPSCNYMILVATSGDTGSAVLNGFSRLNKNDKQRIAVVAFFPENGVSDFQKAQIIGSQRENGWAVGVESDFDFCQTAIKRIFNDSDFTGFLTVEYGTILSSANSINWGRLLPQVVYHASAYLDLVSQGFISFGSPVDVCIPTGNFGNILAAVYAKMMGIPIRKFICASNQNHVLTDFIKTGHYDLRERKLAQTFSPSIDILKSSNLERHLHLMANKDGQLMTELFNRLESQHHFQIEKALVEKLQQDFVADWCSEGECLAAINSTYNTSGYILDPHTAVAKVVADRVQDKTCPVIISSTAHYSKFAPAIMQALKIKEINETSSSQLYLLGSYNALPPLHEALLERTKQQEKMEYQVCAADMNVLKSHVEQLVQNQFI
UniProt Q01664, 23-42: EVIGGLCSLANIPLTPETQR
UniProt Q14188: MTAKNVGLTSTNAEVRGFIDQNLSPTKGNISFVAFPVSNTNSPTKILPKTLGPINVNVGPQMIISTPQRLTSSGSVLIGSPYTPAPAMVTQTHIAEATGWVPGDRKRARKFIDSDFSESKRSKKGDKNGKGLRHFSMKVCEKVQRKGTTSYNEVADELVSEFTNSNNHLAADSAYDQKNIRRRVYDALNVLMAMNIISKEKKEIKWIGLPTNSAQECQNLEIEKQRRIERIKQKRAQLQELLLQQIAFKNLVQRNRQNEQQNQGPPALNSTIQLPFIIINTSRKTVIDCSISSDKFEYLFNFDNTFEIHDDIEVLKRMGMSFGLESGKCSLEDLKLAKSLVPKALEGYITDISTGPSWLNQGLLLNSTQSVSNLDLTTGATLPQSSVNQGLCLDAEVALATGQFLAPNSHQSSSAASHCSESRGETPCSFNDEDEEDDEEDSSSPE
UniProt Q9Y4P3: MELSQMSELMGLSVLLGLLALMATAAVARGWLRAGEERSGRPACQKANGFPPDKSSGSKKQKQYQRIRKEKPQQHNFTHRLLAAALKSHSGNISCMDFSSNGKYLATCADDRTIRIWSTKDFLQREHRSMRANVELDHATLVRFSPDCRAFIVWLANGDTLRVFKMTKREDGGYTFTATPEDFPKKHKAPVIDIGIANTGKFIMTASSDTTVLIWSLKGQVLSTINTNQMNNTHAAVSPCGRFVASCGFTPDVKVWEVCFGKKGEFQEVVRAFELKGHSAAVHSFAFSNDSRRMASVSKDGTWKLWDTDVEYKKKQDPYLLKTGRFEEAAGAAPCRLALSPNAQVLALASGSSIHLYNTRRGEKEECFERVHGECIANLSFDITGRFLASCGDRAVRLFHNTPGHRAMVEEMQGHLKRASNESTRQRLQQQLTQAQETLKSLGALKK
UniProt Q5T011: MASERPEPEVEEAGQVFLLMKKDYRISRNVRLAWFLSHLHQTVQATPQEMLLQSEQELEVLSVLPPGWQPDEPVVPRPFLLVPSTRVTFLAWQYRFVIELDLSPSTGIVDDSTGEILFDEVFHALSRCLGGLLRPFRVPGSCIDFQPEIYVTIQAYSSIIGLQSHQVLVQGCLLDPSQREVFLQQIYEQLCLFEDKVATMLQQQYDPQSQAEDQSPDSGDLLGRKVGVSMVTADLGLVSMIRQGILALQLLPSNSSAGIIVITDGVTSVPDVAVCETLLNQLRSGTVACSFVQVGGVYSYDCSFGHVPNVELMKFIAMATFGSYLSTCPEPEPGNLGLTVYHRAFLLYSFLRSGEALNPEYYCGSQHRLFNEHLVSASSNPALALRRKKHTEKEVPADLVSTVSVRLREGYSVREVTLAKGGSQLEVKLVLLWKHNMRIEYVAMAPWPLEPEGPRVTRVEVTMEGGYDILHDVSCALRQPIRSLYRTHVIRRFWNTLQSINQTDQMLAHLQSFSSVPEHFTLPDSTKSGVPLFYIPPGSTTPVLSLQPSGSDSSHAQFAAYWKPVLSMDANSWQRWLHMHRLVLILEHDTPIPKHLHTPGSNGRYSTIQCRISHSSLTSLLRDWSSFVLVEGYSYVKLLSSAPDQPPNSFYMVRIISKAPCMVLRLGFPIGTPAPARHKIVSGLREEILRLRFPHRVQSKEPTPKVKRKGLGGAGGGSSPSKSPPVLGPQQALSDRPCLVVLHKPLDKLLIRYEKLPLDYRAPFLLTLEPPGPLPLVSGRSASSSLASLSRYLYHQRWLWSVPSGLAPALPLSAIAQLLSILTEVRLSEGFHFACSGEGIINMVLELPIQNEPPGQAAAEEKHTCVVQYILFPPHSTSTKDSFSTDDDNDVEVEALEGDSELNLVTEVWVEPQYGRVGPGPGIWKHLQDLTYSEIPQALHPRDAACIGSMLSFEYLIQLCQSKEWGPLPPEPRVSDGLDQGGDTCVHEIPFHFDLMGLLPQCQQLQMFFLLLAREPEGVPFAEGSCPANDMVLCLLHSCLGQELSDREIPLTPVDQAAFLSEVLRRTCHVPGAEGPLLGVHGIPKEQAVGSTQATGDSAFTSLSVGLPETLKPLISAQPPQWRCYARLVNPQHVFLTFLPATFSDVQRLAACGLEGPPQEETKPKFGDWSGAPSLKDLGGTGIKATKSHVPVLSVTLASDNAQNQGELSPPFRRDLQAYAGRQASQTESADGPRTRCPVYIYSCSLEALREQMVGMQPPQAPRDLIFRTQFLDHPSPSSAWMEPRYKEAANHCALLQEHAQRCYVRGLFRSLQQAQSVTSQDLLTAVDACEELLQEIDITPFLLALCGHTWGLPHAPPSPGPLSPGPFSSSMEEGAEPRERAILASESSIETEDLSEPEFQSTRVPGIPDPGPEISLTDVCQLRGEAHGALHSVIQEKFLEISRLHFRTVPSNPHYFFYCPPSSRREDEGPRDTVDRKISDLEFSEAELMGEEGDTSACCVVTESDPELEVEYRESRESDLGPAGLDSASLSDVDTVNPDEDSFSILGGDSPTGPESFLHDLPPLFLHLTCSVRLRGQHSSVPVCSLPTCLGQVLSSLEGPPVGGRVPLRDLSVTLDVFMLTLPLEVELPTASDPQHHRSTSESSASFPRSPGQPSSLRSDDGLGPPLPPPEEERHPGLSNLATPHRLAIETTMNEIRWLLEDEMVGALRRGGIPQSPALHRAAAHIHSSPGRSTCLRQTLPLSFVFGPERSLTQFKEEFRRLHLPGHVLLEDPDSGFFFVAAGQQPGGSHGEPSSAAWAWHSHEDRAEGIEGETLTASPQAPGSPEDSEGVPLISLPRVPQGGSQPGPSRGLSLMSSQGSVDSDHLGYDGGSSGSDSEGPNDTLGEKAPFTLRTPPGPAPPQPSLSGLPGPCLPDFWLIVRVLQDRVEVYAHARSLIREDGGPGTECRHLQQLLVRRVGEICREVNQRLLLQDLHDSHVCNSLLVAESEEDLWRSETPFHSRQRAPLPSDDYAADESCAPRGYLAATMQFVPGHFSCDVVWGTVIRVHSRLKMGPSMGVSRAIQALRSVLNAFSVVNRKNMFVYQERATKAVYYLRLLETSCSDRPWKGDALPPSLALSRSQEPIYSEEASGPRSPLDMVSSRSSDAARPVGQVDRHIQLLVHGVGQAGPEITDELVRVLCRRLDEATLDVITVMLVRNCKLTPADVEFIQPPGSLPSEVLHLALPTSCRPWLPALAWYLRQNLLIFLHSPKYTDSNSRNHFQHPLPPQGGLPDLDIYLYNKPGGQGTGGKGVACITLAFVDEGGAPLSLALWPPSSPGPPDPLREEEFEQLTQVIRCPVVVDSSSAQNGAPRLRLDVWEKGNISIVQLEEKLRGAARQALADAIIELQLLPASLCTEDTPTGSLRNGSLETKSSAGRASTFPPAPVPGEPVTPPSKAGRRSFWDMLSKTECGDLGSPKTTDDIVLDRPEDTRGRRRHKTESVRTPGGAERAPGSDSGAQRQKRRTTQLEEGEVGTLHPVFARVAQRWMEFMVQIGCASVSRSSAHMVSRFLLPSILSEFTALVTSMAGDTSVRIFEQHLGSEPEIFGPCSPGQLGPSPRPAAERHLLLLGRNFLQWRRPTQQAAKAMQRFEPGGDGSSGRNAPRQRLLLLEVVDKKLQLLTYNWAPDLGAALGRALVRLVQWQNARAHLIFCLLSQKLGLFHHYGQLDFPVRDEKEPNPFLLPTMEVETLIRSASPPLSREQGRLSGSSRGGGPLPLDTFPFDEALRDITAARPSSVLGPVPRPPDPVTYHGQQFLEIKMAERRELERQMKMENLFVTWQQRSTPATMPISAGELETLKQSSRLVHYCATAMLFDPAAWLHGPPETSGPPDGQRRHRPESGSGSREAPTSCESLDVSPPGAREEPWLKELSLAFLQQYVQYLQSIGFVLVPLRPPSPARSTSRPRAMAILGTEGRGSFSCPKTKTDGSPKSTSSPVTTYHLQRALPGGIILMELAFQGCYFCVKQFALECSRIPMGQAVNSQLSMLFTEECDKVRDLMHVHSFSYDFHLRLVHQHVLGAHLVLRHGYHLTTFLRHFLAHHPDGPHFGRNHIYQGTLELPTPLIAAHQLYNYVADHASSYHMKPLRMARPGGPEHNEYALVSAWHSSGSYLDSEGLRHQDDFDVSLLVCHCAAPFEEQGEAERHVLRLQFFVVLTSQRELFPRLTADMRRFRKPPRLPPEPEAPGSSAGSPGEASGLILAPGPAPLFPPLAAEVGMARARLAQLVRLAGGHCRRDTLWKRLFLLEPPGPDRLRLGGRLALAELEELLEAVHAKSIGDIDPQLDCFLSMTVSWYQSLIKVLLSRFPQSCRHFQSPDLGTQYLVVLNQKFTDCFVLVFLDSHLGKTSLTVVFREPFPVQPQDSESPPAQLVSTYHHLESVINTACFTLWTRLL
UniProt Q15813: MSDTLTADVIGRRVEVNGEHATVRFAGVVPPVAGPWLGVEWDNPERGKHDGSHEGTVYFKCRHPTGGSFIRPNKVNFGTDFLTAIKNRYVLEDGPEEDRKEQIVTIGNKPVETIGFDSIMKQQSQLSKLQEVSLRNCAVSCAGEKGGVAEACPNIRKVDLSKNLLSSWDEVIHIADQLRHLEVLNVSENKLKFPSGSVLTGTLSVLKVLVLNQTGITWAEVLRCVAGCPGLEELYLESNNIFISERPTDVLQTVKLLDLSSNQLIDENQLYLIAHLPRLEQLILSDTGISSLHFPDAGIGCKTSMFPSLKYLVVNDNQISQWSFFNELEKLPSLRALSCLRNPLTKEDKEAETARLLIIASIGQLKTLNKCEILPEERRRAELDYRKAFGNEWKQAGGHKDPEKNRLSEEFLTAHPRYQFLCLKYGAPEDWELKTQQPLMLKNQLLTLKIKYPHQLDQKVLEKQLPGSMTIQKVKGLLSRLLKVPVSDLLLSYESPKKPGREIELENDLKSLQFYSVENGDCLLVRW
UniProt Q9Y4R8: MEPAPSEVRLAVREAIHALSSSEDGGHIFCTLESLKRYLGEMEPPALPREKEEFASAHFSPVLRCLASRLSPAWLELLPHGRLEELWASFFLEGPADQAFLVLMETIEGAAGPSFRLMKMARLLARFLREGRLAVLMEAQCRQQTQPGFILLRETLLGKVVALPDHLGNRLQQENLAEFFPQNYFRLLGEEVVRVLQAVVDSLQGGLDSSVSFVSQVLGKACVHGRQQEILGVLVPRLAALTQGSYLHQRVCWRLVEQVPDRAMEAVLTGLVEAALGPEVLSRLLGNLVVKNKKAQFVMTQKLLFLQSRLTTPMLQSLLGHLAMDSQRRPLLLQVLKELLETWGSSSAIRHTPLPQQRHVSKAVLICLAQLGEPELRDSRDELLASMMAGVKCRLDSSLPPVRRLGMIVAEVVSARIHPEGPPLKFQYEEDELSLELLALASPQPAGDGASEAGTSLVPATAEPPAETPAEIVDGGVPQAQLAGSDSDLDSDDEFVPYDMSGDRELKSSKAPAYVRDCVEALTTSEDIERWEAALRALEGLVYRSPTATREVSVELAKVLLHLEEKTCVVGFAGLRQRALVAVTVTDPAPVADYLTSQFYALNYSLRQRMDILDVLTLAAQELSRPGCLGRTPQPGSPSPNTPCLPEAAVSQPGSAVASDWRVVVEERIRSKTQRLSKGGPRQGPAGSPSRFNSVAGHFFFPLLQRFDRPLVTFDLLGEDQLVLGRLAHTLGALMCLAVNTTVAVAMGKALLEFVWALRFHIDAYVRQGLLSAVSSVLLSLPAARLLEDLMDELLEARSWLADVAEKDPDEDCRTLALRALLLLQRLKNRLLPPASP

Compound: ClCC(=O)N[C@@H]1CCCc2ccccc12
Experiment: log2 mean competition ratio of IA-DTB cysteine labelling (DMSO/compound) (log2 ratio); higher = stronger cysteine engagement by compound
Conditions: 50 µM; treatment time: 4 h; cell line lysate: HEK293T
Method: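 IA-DTB competitive cysteine chemoproteomics in HEK293T RIPA lysate. Lysates were treated with compound 29 or 30 at 50 or 200 µM for 4 h, then IA-DTB (500 µM, 1 h), trypsin-digested, NeutrAvidin-enriched and analysed by diaPASEF. Competition ratio = intensity DMSO / intensity compound (n=4 treated, n=64 DMSO); binding: mean log2 CR ≥ 1 and p ≤ 0.05 plus QC filters. Target is the cysteine site.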

| Target | log2 mean competition ratio |
| --- | --- |
| THNSL1 C324 (UniProt Q8IYQ7) | 0.0722 |
| THUMPD2 C161 (UniProt Q9BTF0) | -0.165 |
| TBCD C899 | 0.0171 |
| TANGO6 C286 (UniProt Q9C0B7) | -0.327 |
| TANC1 C1611 (UniProt Q9C0D5) | -0.0344 |
| TICRR C1626 (UniProt Q7Z2Z1) | -0.00816 |
| TFAP4 C29 (UniProt Q01664) | 0.332 |
| TFDP2 C329 (UniProt Q14188) | -0.177 |
| TBL2 C367 (UniProt Q9Y4P3) | -0.0173 |
| TET2 C353 (UniProt Q6N021) | -0.317 |
| TEPSIN C295 | 0.0911 |
| SZT2 C1152 (UniProt Q5T011) | -0.427 |
| TBCA C67 | -0.201 |
| TDP2 C6 (UniProt O95551) | -0.151 |
| TBC1D4 C316 (UniProt O60343) | 0.176 |
| TDP1 C135 (UniProt Q9NUW8) | 0.0815 |
| TBX2 C311 | 0.266 |
| TAP2 C362 (UniProt Q03519) | 0.0944 |
| TBCE C371 (UniProt Q15813) | -0.0325 |
| TELO2 C813 (UniProt Q9Y4R8) | -0.123 |

Same assay, conditions: 200 µM; treatment time: 4 h; cell line lysate: HEK293T

| Target | log2 mean competition ratio |
| --- | --- |
| THNSL1 C324 (UniProt Q8IYQ7) | 0.14 |
| THUMPD2 C161 (UniProt Q9BTF0) | 0.0392 |
| TBCD C899 | 0.183 |
| TANGO6 C286 (UniProt Q9C0B7) | 0.207 |
| TANC1 C1611 (UniProt Q9C0D5) | 0.0756 |
| TICRR C1626 (UniProt Q7Z2Z1) | -0.0507 |
| TFAP4 C29 (UniProt Q01664) | 0.181 |
| TFDP2 C329 (UniProt Q14188) | 0.101 |
| TBL2 C367 (UniProt Q9Y4P3) | 0.0466 |
| TET2 C353 (UniProt Q6N021) | 0.0165 |
| TEPSIN C295 | 0.219 |
| SZT2 C1152 (UniProt Q5T011) | -0.193 |
| TBCA C67 | -0.22 |
| TDP2 C6 (UniProt O95551) | -0.0219 |
| TBC1D4 C316 (UniProt O60343) | 0.155 |
| TDP1 C135 (UniProt Q9NUW8) | -0.138 |
| TBX2 C311 | -0.0697 |
| TAP2 C362 (UniProt Q03519) | 0.0125 |
| TBCE C371 (UniProt Q15813) | -0.262 |
| TELO2 C813 (UniProt Q9Y4R8) | 0.289 |
